Assay results reported in patent US20030119772A1.
Results are given in words; binding and its absence hold for the method and conditions named. Some results given as binding are weak or reduced against the parent protein; the word gives no strength.

Protein sequences, listed by entry. Tags and fused reporters are not part of them. Residues count along the entry.
UniProt P70399, residues 1492-1969: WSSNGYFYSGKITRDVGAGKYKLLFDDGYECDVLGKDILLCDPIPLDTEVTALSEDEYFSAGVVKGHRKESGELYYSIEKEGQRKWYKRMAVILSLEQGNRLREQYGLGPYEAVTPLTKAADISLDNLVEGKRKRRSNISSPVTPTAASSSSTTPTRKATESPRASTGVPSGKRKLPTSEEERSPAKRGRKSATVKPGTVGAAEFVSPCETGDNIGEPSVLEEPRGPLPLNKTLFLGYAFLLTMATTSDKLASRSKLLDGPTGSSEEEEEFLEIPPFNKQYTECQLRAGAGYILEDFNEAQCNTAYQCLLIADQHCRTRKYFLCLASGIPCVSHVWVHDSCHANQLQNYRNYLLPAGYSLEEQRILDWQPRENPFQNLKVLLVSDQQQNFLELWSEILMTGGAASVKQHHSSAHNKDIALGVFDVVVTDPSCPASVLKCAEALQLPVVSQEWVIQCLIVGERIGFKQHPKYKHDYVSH

Columns and labels:
[1] = target: Murine ZEB (cDNA 129-3240 nt) fused in frame with the GAL4 DNA-binding domain in pAS2-1 (murine); test: yeast two-hybrid screen
[2] = target: Murine ZEB (cDNA 129-3240 nt) fused in frame with the GAL4 DNA-binding domain in pAS2-1 (murine); test: yeast two-hybrid screen in Y-190, verified on beta-galactosidase plates
[3] = target: Murine ZEB (cDNA 129-3240 nt) fused in frame with the GAL4 DNA-binding domain in pAS2-1 (murine); test: yeast two-hybrid, growth on -LEU/-TRP/-HIS plates

binding [1]: binds | binding [2]: binds | binding [3]: binds
Substance: p53BP1 clone #43 (carboxyl-terminal fragment) fused to the GAL4 activation domain in pGAD10 (from UniProt P70399 1492-1969)
